From patent publication US5021413A (priority 1988, dated 1991) come the findings set out here.

The test concerns p-phenylquinone-induced writhing in mice. The test is described as follows: animal or person. The note with it: Mus musculus, sc, read-out: Analgesic effect, phenylquinone-induced writhing, ED50. It is filed as in vivo, mouse (male ddY mice). On the technique in general: Writhing tests count abdominal constrictions after an irritant is injected.

A word on the ED50: it is the midpoint of the dose-response relation. As to `CN1CC[C@]23c4c5ccc(O)c4O[C@H]2[C@@H](O)C=C[C@H]3[C@H]1C5.Cl` [Morphine HCl, reference compound], the median effective dose (ED50) is 0.48 mg/kg.
